According to paper PMC8875030:
These are yes or no findings as the source states them, for the method shown. Binding seen in cells or lysates may run through a third protein. Some results given as binding are weak or reduced against the parent protein; the word gives no strength.

The chains behind the UniProt entries cited, without tags or fusion partners.
UniProt P16370: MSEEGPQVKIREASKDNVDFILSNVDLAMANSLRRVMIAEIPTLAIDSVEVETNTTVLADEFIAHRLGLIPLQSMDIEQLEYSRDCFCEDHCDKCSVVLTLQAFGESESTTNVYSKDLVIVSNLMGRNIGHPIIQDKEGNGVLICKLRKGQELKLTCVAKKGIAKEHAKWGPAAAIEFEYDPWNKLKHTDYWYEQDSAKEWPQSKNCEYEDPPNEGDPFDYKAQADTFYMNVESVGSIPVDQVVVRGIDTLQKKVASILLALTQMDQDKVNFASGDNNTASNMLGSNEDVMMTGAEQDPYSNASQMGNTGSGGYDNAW
UniProt P20434: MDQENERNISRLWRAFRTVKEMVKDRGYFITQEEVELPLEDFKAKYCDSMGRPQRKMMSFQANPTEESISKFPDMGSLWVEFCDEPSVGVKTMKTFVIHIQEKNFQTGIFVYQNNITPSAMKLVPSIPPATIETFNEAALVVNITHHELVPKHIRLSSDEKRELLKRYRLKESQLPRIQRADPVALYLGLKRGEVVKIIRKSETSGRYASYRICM
UniProt P20435: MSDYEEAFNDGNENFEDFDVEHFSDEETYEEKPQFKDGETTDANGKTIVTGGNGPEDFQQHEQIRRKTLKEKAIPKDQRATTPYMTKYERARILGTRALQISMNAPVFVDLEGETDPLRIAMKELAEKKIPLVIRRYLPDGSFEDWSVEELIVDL

Target: Rpb3 subunit of RNA pol II (S. cerevisiae) (UniProt P16370)
Test: co-IP; anti-Rpb3 antibody (1Y26) on Dynabeads Sheep-anti-Mouse IgG, 2 mg whole-cell protein extract of wild-type and rtr1Δ strains (YPD, 30 °C; in Figure 6B SD medium, with RPB4/7 overexpression or empty vectors); lysis buffer 50 mM HEPES pH 7.5, 120 mM NaCl, 1 mM EDTA, 0.3% CHAPS; Western blot of …

Row | binding | Substance
1 | binds | Rpb5 subunit of RNA pol II (from UniProt P20434 1-215)
2 | binds | Rpb6 subunit of RNA pol II (from UniProt P20435 1-155)
